Assay results published in the supplement of paper PMC8728848.
Some of the results follow.

Key:
Assay in all cases: glycan array binding signal (z-score within array); higher = stronger binding
Conditions in all cases: glycan notation: IUPAC condensed, linker removed
Neu5Ac(a2-3)Gal = biological target: Neu5Ac(a2-3)Gal
In short: (§1)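 The Consortium for Functional Glycomics database supplied 3228 glycan arrays, of which those lacking an available protein sequence were dropped. The binding signal, a within-array Z-score, was averaged across arrays of the same protein sequence and across linkers. Negative scores can be read as non-binding.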

[1] = biological target: Neu5Ac(a2-3)Gal(b1-3)GalNAc
In short: as §1

[2] = biological target: Neu5Ac(a2-3)Gal(b1-3)GalNAc(b1-3)Gal(a1-4)Gal(b1-4)Glc
In short: as §1

[3] = biological target: Neu5Ac(a2-3)Gal(b1-3)GalNAc(b1-4)Gal(b1-4)Glc
In short: as §1

[4] = biological target: Neu5Ac(a2-3)Gal(b1-3)GalNAc(b1-4)[Neu5Ac(a2-3)]Gal(b1-4)Glc
In short: as §1

[5] = biological target: Neu5Ac(a2-3)Gal(b1-3)GalNAc(b1-4)[Neu5Ac(a2-8)Neu5Ac(a2-3)]Gal(b1-4)Glc
In short: as §1

[6] = biological target: Neu5Ac(a2-3)Gal(b1-3)GalNAc6S
In short: as §1

[7] = biological target: Neu5Ac(a2-3)Gal(b1-3)GlcNAc
In short: as §1

[8] = biological target: Neu5Ac(a2-3)Gal(b1-3)GlcNAc(b1-2)Man
In short: as §1

[9] = biological target: Neu5Ac(a2-3)Gal(b1-3)GlcNAc(b1-2)Man(a1-3)[GlcNAc(b1-4)][Neu5Ac(a2-3)Gal(b1-3)GlcNAc(b1-2)Man(a1-6)]Man(b1-4)GlcNAc(b1-4)GlcNAc
In short: as §1

[10] = biological target: Neu5Ac(a2-3)Gal(b1-3)GlcNAc(b1-2)Man(a1-3)[Neu5Ac(a2-3)Gal(b1-3)GlcNAc(b1-2)Man(a1-6)]Man(b1-4)GlcNAc(b1-4)GlcNAc
In short: as §1

[11] = biological target: Neu5Ac(a2-3)Gal(b1-3)GlcNAc(b1-2)[Neu5Ac(a2-3)Gal(b1-3)GlcNAc(b1-4)]Man(a1-6)[Neu5Ac(a2-3)Gal(b1-3)GlcNAc(b1-2)Man(a1-3)]Man(b1-4)GlcNAc(b1-4)GlcNAc
In short: as §1

[12] = biological target: Neu5Ac(a2-3)Gal(b1-3)GlcNAc(b1-3)Gal(b1-3)GlcNAc
In short: as §1

[13] = biological target: Neu5Ac(a2-3)Gal(b1-3)GlcNAc(b1-3)Gal(b1-4)GlcNAc
In short: as §1

[14] = biological target: Neu5Ac(a2-3)Gal(b1-3)GlcNAc(b1-3)GalNAc
In short: as §1

[15] = biological target: Neu5Ac(a2-3)Gal(b1-3)GlcNAc(b1-6)GalNAc
In short: as §1

[16] = biological target: Neu5Ac(a2-3)Gal(b1-3)GlcNAc6S
In short: as §1

[17] = biological target: Neu5Ac(a2-3)Gal(b1-3)[Fuc(a1-4)]GlcNAc
In short: as §1

[18] = biological target: Neu5Ac(a2-3)Gal(b1-3)[Fuc(a1-4)]GlcNAc(b1-3)Gal(b1-3)[Fuc(a1-4)]GlcNAc
In short: as §1

[19] = biological target: Neu5Ac(a2-3)Gal(b1-3)[Fuc(a1-4)]GlcNAc(b1-3)Gal(b1-4)[Fuc(a1-3)]GlcNAc
In short: as §1

[20] = biological target: Neu5Ac(a2-3)Gal(b1-3)[GlcNAc(b1-6)]GalNAc
In short: as §1

[21] = biological target: Neu5Ac(a2-3)Gal(b1-3)[Neu5Ac(a2-6)]GalNAc
In short: as §1

[22] = biological target: Neu5Ac(a2-3)Gal(b1-3)[Neu5Ac(a2-6)]GlcNAc(b1-3)[Fuc(a1-3)[Gal(b1-4)]GlcNAc(b1-6)]Gal(b1-4)Glc
In short: as §1

[23] = biological target: Neu5Ac(a2-3)Gal(b1-3)]Neu5Ac(a2-3)Gal(b1-4)]GlcNAc
In short: as §1

Neu5Ac(a2-3)Gal(b1-4)Glc = biological target: Neu5Ac(a2-3)Gal(b1-4)Glc
In short: as §1

[24] = biological target: Neu5Ac(a2-3)Gal(b1-4)GlcNAc
In short: as §1

[25] = biological target: Neu5Ac(a2-3)Gal(b1-4)GlcNAc(b1-2)Man
In short: as §1

[26] = biological target: Neu5Ac(a2-3)Gal(b1-4)GlcNAc(b1-2)Man(a1-3)[GlcNAc(b1-4)][Neu5Ac(a2-3)Gal(b1-4)GlcNAc(b1-2)Man(a1-6)]Man(b1-4)GlcNAc(b1-4)GlcNAc
In short: as §1

[27] = biological target: Neu5Ac(a2-3)Gal(b1-4)GlcNAc(b1-2)Man(a1-3)[Neu5Ac(a2-3)Gal(b1-4)GlcNAc(b1-2)Man(a1-6)]Man(b1-4)GlcNAc(b1-4)GlcNAc
In short: as §1

[28] = biological target: Neu5Ac(a2-3)Gal(b1-4)GlcNAc(b1-2)Man(a1-3)[Neu5Ac(a2-3)Gal(b1-4)GlcNAc(b1-2)Man(a1-6)]Man(b1-4)GlcNAc(b1-4)[Fuc(a1-6)]GlcNAc
In short: as §1

[29] = biological target: Neu5Ac(a2-3)Gal(b1-4)GlcNAc(b1-2)Man(a1-3)[Neu5Ac(a2-6)Gal(b1-4)GlcNAc(b1-2)Man(a1-6)]Man(b1-4)GlcNAc(b1-4)GlcNAc
In short: as §1

[30] = biological target: Neu5Ac(a2-3)Gal(b1-4)GlcNAc(b1-2)[Neu5Ac(a2-3)Gal(b1-4)GlcNAc(b1-4)]Man(a1-3)[GlcNAc(b1-4)][Neu5Ac(a2-3)Gal(b1-4)GlcNAc(b1-2)[Neu5Ac(a2-3)Gal(b1-4)GlcNAc(b1-6)]Man(a1-6)]Man(b1-4)GlcNAc(b1-4)GlcNAc
In short: as §1

[31] = biological target: Neu5Ac(a2-3)Gal(b1-4)GlcNAc(b1-2)[Neu5Ac(a2-3)Gal(b1-4)GlcNAc(b1-4)]Man(a1-3)[GlcNAc(b1-4)][Neu5Ac(a2-3)Gal(b1-4)GlcNAc(b1-4)Man(a1-6)]Man(b1-4)GlcNAc(b1-4)GlcNAc
In short: as §1

[32] = biological target: Neu5Ac(a2-3)Gal(b1-4)GlcNAc(b1-2)[Neu5Ac(a2-3)Gal(b1-4)GlcNAc(b1-6)]Man(a1-6)[Neu5Ac(a2-3)Gal(b1-4)GlcNAc(b1-2)Man(a1-3)][GlcNAc(b1-4)]Man(b1-4)GlcNAc(b1-4)GlcNAc
In short: as §1

[33] = biological target: Neu5Ac(a2-3)Gal(b1-4)GlcNAc(b1-3)Gal
In short: as §1

[34] = biological target: Neu5Ac(a2-3)Gal(b1-4)GlcNAc(b1-3)Gal(b1-3)GlcNAc
In short: as §1

[35] = biological target: Neu5Ac(a2-3)Gal(b1-4)GlcNAc(b1-3)Gal(b1-4)GlcNAc
In short: as §1

[36] = biological target: Neu5Ac(a2-3)Gal(b1-4)GlcNAc(b1-3)Gal(b1-4)GlcNAc(b1-2)Man(a1-3)[Neu5Ac(a2-3)Gal(b1-4)GlcNAc(b1-3)Gal(b1-4)GlcNAc(b1-2)Man(a1-6)]Man(b1-4)GlcNAc(b1-4)GlcNAc
In short: as §1

[37] = biological target: Neu5Ac(a2-3)Gal(b1-4)GlcNAc(b1-3)Gal(b1-4)GlcNAc(b1-3)Gal(b1-4)GlcNAc
In short: as §1

[38] = biological target: Neu5Ac(a2-3)Gal(b1-4)GlcNAc(b1-3)Gal(b1-4)GlcNAc(b1-3)Gal(b1-4)GlcNAc(b1-2)Man(a1-3)[Neu5Ac(a2-3)Gal(b1-4)GlcNAc(b1-3)Gal(b1-4)GlcNAc(b1-3)Gal(b1-4)GlcNAc(b1-2)Man(a1-6)]GalNAc
In short: as §1

[39] = biological target: Neu5Ac(a2-3)Gal(b1-4)GlcNAc(b1-3)Gal(b1-4)GlcNAc(b1-3)GalNAc
In short: as §1

[40] = biological target: Neu5Ac(a2-3)Gal(b1-4)GlcNAc(b1-3)Gal(b1-4)GlcNAc(b1-3)[Neu5Ac(a2-3)Gal(b1-4)GlcNAc(b1-3)Gal(b1-4)GlcNAc(b1-6)]GalNAc
In short: as §1

[41] = biological target: Neu5Ac(a2-3)Gal(b1-4)GlcNAc(b1-3)Gal(b1-4)GlcNAc(b1-6)[Gal(b1-3)]GalNAc
In short: as §1

[42] = biological target: Neu5Ac(a2-3)Gal(b1-4)GlcNAc(b1-3)Gal(b1-4)[Fuc(a1-3)]GlcNAc
In short: as §1

[43] = biological target: Neu5Ac(a2-3)Gal(b1-4)GlcNAc(b1-3)GalNAc
In short: as §1

B1: FGF1 (Homo sapiens), P05230 (protein)
chain: MAEGEITTFTALTEKFNLPPGNYKKPKLLYSNGGHFLRILPDGTVDGTRDRSDQHIQLQLSAESVGEVYIKSTETGQYLAMTDGLLYGSQTPNEECLFLERLEENHYNTYISKHAEKNWFVGLKKNGSCKRGPRTHYGQAILFLPLPASSED
In the case of B1, the “glycan array binding signal (z-score)” value (Neu5Ac(a2-3)Gal) is reported as -0.196, the “glycan array binding signal (z-score)” value [1] is reported as 0.143 and the “glycan array binding signal (z-score)” value [2] is reported as -0.299. The “glycan array binding signal (z-score)” value [3] was -0.819, the “glycan array binding signal (z-score)” value [4] was -0.511 and the “glycan array binding signal (z-score)” value [5] was -0.85. For the same binder, the “glycan array binding signal (z-score)” value [6] was 0.045, the “glycan array binding signal (z-score)” value [7] was 0.757 and the “glycan array binding signal (z-score)” value [8] was -0.797. For the same binder, the “glycan array binding signal (z-score)” value [9] was 0.01, the “glycan array binding signal (z-score)” value [10] was 4.88 and the “glycan array binding signal (z-score)” value [11] was 1.02. The “glycan array binding signal (z-score)” value [12] was -0.881, the “glycan array binding signal (z-score)” value [13] was -0.691 and the “glycan array binding signal (z-score)” value [14] was -0.187. The “glycan array binding signal (z-score)” value [15] was -0.537, the “glycan array binding signal (z-score)” value [16] was 1.43 and the “glycan array binding signal (z-score)” value [17] was -0.174. The “glycan array binding signal (z-score)” value [18] was -0.247, the “glycan array binding signal (z-score)” value [19] was 0.434 and the “glycan array binding signal (z-score)” value [20] was -0.601. The “glycan array binding signal (z-score)” value [21] was 0.473, the “glycan array binding signal (z-score)” value [22] was -0.432 and the “glycan array binding signal (z-score)” value [23] was -0.971. For the same binder, the “glycan array binding signal (z-score)” value (Neu5Ac(a2-3)Gal(b1-4)Glc) was 0.546, the “glycan array binding signal (z-score)” value [24] was -0.519 and the “glycan array binding signal (z-score)” value [25] was 5.56. The “glycan array binding signal (z-score)” value [26] was -0.826, the “glycan array binding signal (z-score)” value [27] was -0.84 and the “glycan array binding signal (z-score)” value [28] was -0.801. The “glycan array binding signal (z-score)” value [29] was -0.888, the “glycan array binding signal (z-score)” value [30] was -0.618 and the “glycan array binding signal (z-score)” value [31] was -0.334. The “glycan array binding signal (z-score)” value [32] was -0.625, the “glycan array binding signal (z-score)” value [33] was -0.867 and the “glycan array binding signal (z-score)” value [34] was -0.884. For the same binder, the “glycan array binding signal (z-score)” value [35] was -0.791, the “glycan array binding signal (z-score)” value [36] was 0.262 and the “glycan array binding signal (z-score)” value [37] was -0.117. The “glycan array binding signal (z-score)” value [38] was 0.631, the “glycan array binding signal (z-score)” value [39] was -0.451 and the “glycan array binding signal (z-score)” value [40] was 0.416. For the same binder, the “glycan array binding signal (z-score)” value [41] was -0.573, the “glycan array binding signal (z-score)” value [42] was -0.732 and the “glycan array binding signal (z-score)” value [43] was -0.219.
